Data as given in PubChem BioAssay AID1259308 (NCATS, 2017).

Aim: 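Knock-downs that increase output of a recombinant reporter protein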 (primary screen)
Cells: human HEK293 embryonic kidney cells stably expressing firefly luciferase (HEK-CMV-Luc2-Hygro)
Knock-down reagent: single siRNA against human genes, 0.8 pmol siRNA per well
Timing: 72 h
Detection: 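Luciferase light (ONE-Glo) measured on one replicate plate set and viability (CellTiter-Glo) on the other, scaled to a negative control siRNA, with robust z-scores and luciferase per cell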
Direction: total luciferase, z-score: higher = more reporter protein produced
Hit rule: 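An siRNA counts as active if its total luciferase robust z-score exceeds 3; genes with two or more such siRNAs out of three were retested with fresh siRNAs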
Calls: active = raised luciferase; inactive = no rise
Here is one part, drawn at random, of about 59,000 reagents tested. In the full data, about 1,510 (2.6%) were called active. 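Calls use total luciferase alone and ignore viability, so some active siRNAs may act by altering cell number.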 Unmarked entries are inactive. The numbers tell different reagents against one gene apart. Not all columns of the deposit are shown. Reagent sequences are not shown.

total luciferase, z-score, by gene knocked down and reagent
DPY30 (dpy-30 histone methyltransferase complex regulatory subunit): #1 -0.113; #2 -0.88; #3 0.127
PGGT1B (protein geranylgeranyltransferase type I subunit beta): #1 -1.11; #2 0.616; #3 0.151
LINC00482 (long independently transcribed non-coding RNA 482): #1 1.48; #2 0.69; #3 -0.4
RANBP17 (RAN binding protein 17): #1 2.18; #2 -0.414; #3 0.0305
RRAS (RAS related): #1 0.588; #2 1.33; #3 -0.717
LINS1 (lines homolog 1): #1 -1.64; #2 0.485; #3 0.732
DHRS3 (dehydrogenase/reductase 3): #1 1.23; #2 -1.45; #3 -0.586
SUGP1 (SURP and G-patch domain containing 1): #1 -0.969; #2 2.31; #3 -0.331
CNFN (cornifelin): #1 0.163; #2 1.45; #3 -0.89
CDH2 (cadherin 2): #1 -0.736; #2 0.364; #3 -1.12
DISP2 (dispatched RND transporter family member 2): #1 -0.692; #2 -0.557; #3 -1.29
ZNF600 (zinc finger protein 600): #1 -0.00539; #2 1.46; #3 -1.01
TP53BP1 (tumor protein p53 binding protein 1): #1 0.976; #2 1.55; #3 0.93

Part of the list above in another layout.
gene knocked down | reagent no. | total luciferase, z-score
SUGP1 (SURP and G-patch domain containing 1) | 3 | -0.331
CNFN (cornifelin) | 1 | 0.163
CNFN (cornifelin) | 2 | 1.45
CNFN (cornifelin) | 3 | -0.89
CDH2 (cadherin 2) | 1 | -0.736
CDH2 (cadherin 2) | 2 | 0.364
